The source of these data is US20160009817A1 (Bayer, published 2016).

The chains behind the UniProt entries cited, without tags or fusion partners. Residues count along the entry.
UniProt P10646, residues 29-282: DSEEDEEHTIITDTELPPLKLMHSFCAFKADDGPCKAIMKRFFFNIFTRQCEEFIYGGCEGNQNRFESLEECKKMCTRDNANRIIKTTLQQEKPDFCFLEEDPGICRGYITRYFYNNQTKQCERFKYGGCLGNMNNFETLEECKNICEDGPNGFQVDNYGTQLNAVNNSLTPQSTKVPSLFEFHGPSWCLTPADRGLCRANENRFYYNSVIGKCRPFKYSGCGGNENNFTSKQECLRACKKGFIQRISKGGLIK

These are yes or no findings as the source states them, for the method shown. Some binding calls cover weakened binding; strength is not graded here.

The target in experiment [1] is human tissue factor pathway inhibitor (TFPI) (human) (UniProt P10646). Nature of the experiment: SPR (Biacore), human TFPI immobilised, 10 ug/mL antibody. (In general: SPR reads the build-up and loss of mass on a sensor chip optically.)
Experiment [2] has the same target. Nature of the experiment: SPR (Biacore), human TFPI immobilised on a CM4 or CM5 chip, 10 µg/mL antibody without HSA, percentage binding.

B1: Ter119scFv-gA200 (bispecific antibody, human IgG2, lambda)
heavy: QVKLQESGGGLVQPGGSLKLSCVASGFTFRDHWMNWVRQAPGKTMEWIGDIRPDGSDTNYAPSVRNRFTISRDNARSILYLQMSNMRSDYTATYYCVRDSPTRAGLMDAWGQGASVTVLTGGGGSGGGGSGGGGSDIQMIQSPSVLSASVGDRVTLNCKASQNINKYLNWYQQKLGEAPKVLIYNTNNLQTGIPSRFSGSGSGTDFTLTISSLQPEDFATYFCFQHYTWPTFGGGTKLELKEGRTATSGGGLVQPGGSLRLSCAASGFTFSSYGMDWVRQAPGKGLEWVSSIRGSRGSTYYADSVKGRFTISRDNSKNTLYLQMNSLRAEDTAVYYCARLYRYWFDYWGQGTLVTVSSASTKGPSVFPLAPCSRSTSESTAALGCLVKDYFPEPVTVSWNSGALTSGVHTFPAVLQSSGLYSLSSVVTVPSSNFGTQTYTCNVDHKPSNTKVDKTVERKCCVECPPCPAPPVAGPSVFLFPPKPKDTLMISRTPEVTCVVVDVSHEDPEVQFNWYVDGVEVHNAKTKPREEQFNSTFRVVSVLTVVHQDWLNGKEYKCKVSNKGLPAPIEKTISKTKGQPREPQVYTLPPSREEMTKNQVSLTCLVKGFYPSDIAVEWESNGQPENNYKTTPPMLDSDGSFFLYSKLTVDKSRWQQGNVFSCSVMHEALHNHYTQKSLSLSPG
light: SYELTQPPSVSVSPGQTARITCSGDNLPKYYAHWYQQKPGQAPVVVIFYDVNRPSGIPERFSGSNSGNTATLTISGTQAMDEADYYCQAWWSSTPVFGGGTKLTVLGQPKAAPSVTLFPPSSEELQANKATLVCLISDFYPGAVTVAWKADSSPVKAGVETTTPSKQSNNKYAASSYLSLTPEQWKSHRSYSCQVTHEGSTVEKTVAPTECS
notes: scFv against RBC fused on the N-terminus of the heavy chain of anti-TFPI IgG gA200; made in CHO cells; also called Ter119sc-gA200; T119sc-gA200
As for B1, the binding result in experiment [1] and in experiment [2] was “binds” each time.

B2: 3E10scFv-gA200 (bispecific antibody, human IgG2, lambda)
heavy: QVQLVESGGTLVQPGGSLRLSCAASGFSFTDAWMSWVRQAPGKELEWVSSISGSGGSTYYAGSVKGRFTISRDNSKNTLYLQMNSLRAEDTAVYYCARVLSLTDYYWYGMDVWGQGTLVTVGGGGSGGGGSGGGGSNFMLTQPHSVSASPGKTVTISCTRSSGSVASYYVQWYQQRPGSSPTTVIYEDNHRPSGVPDRFSGSIDTSSNSASLTISGLKTEDEADYYCQSYDSNNLVVFGGGTKLTVLGEGRTATSGGGLVQPGGSLRLSCAASGFTFSSYGMDWVRQAPGKGLEWVSSIRGSRGSTYYADSVKGRFTISRDNSKNTLYLQMNSLRAEDTAVYYCARLYRYWFDYWGQGTLVTVSSASTKGPSVFPLAPCSRSTSESTAALGCLVKDYFPEPVTVSWNSGALTSGVHTFPAVLQSSGLYSLSSVVTVPSSNFGTQTYTCNVDHKPSNTKVDKTVERKCCVECPPCPAPPVAGPSVFLFPPKPKDTLMISRTPEVTCVVVDVSHEDPEVQFNWYVDGVEVHNAKTKPREEQFNSTFRVVSVLTVVHQDWLNGKEYKCKVSNKGLPAPIEKTISKTKGQPREPQVYTLPPSREEMTKNQVSLTCLVKGFYPSDIAVEWESNGQPENNYKTTPPMLDSDGSFFLYSKLTVDKSRWQQGNVFSCSVMHEALHNHYTQKSLSLSPG
light: B1 light
notes: scFv against TF fused on the N-terminus of the heavy chain of anti-TFPI IgG gA200; made in CHO cells; also called 3E10sc-gA200
As for B2, the binding entry in experiment [2] is “binds”.
